Test results published in paper PMC5566180.
No constants are given. Whether binding was seen depends on the method and setting. In cells and extracts the contact can be indirect. For part of these data: Binding can be weak; no strength is given. Tags and fused reporters may be left off the sequences shown.

Amino acid sequences for entries named in this document (tags omitted). A change or cut given only in a name is not applied to a line headed by its entry.
UniProt P97873: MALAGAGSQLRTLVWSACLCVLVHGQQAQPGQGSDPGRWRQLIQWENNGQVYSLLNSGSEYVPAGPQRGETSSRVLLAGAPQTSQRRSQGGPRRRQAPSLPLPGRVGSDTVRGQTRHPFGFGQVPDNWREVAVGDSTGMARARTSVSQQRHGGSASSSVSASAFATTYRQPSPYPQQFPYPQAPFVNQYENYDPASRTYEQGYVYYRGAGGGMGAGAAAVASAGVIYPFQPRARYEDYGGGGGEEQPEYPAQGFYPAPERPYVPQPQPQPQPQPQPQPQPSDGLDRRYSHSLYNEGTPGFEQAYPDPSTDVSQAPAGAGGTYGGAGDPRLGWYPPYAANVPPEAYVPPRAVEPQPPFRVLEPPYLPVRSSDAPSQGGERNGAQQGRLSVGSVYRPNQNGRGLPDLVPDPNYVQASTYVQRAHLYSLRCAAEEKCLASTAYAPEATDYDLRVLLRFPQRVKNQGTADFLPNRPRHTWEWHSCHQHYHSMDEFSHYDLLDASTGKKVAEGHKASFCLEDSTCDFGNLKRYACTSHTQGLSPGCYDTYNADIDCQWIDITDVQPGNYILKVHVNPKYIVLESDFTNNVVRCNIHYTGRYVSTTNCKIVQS
UniProt P28301: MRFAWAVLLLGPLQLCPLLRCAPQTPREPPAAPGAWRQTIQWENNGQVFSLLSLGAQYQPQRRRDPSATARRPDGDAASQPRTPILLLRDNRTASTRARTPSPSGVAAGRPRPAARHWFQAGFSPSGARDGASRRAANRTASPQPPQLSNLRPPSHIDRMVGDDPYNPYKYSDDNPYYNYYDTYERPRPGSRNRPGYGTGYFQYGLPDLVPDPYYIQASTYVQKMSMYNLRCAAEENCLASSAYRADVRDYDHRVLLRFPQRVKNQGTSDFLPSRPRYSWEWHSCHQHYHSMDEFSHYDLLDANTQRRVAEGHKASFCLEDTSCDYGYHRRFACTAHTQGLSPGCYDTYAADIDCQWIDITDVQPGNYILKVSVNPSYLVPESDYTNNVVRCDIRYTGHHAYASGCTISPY

Experiments:
Experiment in all cases: co-IP; COS7 cells cotransfected; 1 mg lysate (50 mM Tris-HCl pH 7.4-7.5, 300 mM NaCl, 1% Triton X-100) on Anti-FlagM2 affinity gel overnight; Flag-tagged protein as bait; eluted by boiling in SDS lysis buffer, Western blot
[1] = molecular target: T1, APMAP_E1-flag (Apmap_E1 in pFLAG-CMV-5.1) (mouse) (UniProt Q9D7N9)
T1 sequence: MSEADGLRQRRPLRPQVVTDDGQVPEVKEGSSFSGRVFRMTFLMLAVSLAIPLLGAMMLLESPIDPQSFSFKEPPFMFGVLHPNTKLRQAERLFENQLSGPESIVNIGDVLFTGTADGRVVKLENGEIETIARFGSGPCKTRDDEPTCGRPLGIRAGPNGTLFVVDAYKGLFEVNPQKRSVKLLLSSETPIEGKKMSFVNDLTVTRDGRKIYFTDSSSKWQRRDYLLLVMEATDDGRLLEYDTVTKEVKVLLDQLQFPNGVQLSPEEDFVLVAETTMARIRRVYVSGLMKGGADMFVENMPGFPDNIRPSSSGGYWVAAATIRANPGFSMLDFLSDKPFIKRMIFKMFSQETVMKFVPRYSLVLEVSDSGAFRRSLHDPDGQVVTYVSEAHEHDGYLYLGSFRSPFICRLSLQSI

[2] = molecular target: T2, LOXL3-flag (murine lysyl oxidase-like 3) (mouse) (UniProt Q9Z175)
T2 sequence: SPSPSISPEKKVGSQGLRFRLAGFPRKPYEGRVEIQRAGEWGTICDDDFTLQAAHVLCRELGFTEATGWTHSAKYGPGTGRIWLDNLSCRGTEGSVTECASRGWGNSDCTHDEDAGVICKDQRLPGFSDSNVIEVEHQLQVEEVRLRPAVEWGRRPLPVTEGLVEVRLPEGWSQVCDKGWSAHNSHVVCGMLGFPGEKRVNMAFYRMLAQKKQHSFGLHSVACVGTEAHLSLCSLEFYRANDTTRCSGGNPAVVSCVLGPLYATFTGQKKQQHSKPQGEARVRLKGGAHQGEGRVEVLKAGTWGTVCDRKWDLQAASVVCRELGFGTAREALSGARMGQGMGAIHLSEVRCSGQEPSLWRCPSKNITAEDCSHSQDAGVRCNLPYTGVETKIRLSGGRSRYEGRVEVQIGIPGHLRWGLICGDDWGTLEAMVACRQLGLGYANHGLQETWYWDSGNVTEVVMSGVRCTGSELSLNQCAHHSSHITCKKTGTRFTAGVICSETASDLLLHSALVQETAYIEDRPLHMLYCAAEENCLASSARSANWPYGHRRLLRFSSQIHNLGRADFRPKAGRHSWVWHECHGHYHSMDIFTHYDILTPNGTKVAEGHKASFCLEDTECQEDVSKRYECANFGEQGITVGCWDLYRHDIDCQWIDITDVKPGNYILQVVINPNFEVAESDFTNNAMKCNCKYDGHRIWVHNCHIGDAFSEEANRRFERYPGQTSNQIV

[3] = molecular target: LOXL1-flag (murine lysyl oxidase-like 1) (mouse) (UniProt P97873)

His-LOX (lysyl oxidase in pcDNA4/HismaxC) (from UniProt P28301)
binding [1]: no binding

APMAP_E2, truncated APMAP variant (start codon in exon 2) (mouse)
binding [2]: binds

B1: His-tagged full-length murine APMAP_E1 (adipocyte plasma membrane-associated protein) (protein, UniProt Q9D7N9 1-415)
chain: T1 sequence
binding [3]: binds
